Test [1] has as its target T1, Strep-His-TEV-HaloTag-3C-Xenopus γTuNA (Xenopus Cdk5rap2 aa 56–101), wildtype (Xenopus laevis).
T1 sequence: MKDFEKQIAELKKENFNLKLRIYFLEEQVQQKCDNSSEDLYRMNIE
Nature of the test: affinity purification with mass spectrometry; Halo-Magne beads coupled to Halo-γTuNA baits in Xenopus egg extract, 3C elution, TMT multiplexed quantitative mass spectrometry (Quant-IP); enrichment against the Xenopus F75A bait; only the target purified.

Protein sequences, listed by entry. Tags and fused reporters are not part of them.
UniProt Q9DG02: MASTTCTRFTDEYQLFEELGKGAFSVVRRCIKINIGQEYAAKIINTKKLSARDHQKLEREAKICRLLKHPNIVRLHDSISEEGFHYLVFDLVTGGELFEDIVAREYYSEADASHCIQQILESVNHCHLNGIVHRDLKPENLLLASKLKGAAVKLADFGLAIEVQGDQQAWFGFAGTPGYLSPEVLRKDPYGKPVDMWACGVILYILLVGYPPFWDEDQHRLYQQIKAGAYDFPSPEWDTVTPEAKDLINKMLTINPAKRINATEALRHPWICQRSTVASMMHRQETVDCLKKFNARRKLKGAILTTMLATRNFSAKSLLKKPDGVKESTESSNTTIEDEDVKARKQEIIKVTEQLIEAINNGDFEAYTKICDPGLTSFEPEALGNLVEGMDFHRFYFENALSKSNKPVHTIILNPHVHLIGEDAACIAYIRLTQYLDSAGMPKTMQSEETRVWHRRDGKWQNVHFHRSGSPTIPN

In test [2] the target is T2, Strep-His-TEV-HaloTag-3C-human γTuNA (human CDK5RAP2 aa 53–98), wildtype (human).
T2 sequence: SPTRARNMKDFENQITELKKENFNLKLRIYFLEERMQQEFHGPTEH
The test is described as above.

No constants are given. Whether binding was seen depends on the method and setting. Binding seen in cells or lysates may run through a third protein. These calls come from enrichment with a bait or labelling near it, and not all partners need be listed. Tags and fused reporters may be left off the sequences shown.

With “cyclin-dependent kinase 1 (CDK1) subunit A, Xenopus laevis”, the binding entry in test [1] and in test [2] was “binds” throughout.
Turning to “nucleoside diphosphate kinase 7 (NME7), Xenopus laevis”, the binding entry in test [1] and in test [2] was “binds” each time.
For “type II delta chain of the calmodulin-dependent protein kinase (CAMK2D), Xenopus laevis (from UniProt Q9DG02 1-475)”, the binding result in test [1] and in test [2] was “binds” each time.
Regarding “cyclin-dependent kinase 1 (CDK1) subunit B, Xenopus laevis”, the binding entry in test [1] and in test [2] was “binds” in each case.

For the origin of these results see publication PMC9859039, “The conserved centrosomin motif, γTuNA, forms a dimer that directly activates microtubule nucleation by the γ-tubulin ring complex (γTuRC)” (eLife, 2022).
